The source of these data is paper PMC5864894.

Results are given in words; binding and its absence hold for the method and conditions named. A result given as binding can be weak or reduced; the word gives no strength.

Assay [1] deals with T1, AscY (A. salmonicida) (A. salmonicida) (UniProt Q8GA92).
T1 sequence: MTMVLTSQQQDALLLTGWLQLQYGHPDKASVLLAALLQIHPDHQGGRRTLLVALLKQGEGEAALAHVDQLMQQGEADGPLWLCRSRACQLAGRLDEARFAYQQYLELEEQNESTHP
As to the kind of experiment: two-hybrid.

Assay [2] deals with PscY (P. aeruginosa) (UniProt O30535). The experiment in a line: two-hybrid.

Consider PscX (from UniProt O30534), for which the binding entry in assay [1] and in assay [2] was “binds” in each case.

B1: AscX (A. salmonicida) (protein, UniProt Q8GA93 1-121)
chain: MSRITAAHIGIEQLSAISLDDQERSLPGRYALLPDGQSIEPHISRLYPERLADRVLLDFATPDRGFHDLLRPVDFNQAMQGLRSVLAEGQSPELRAAAALLEQMHADEQLMQMTLHLLHKV
As to B1, in assay [2], the binding result is “binds”.
